For some of these results: Not every detail of the peptide structures is certain; ends, links or a residue may be inferred. For some of these results: For at least one compound, name, drawing or mass did not settle the structure. Some of these results come from one statement about several compounds together. Where a SMILES comes first, the peptide text is derived from it. Bridges are numbered along the chain shown (N, C = ends). The star is where a group is joined. DOTA = O=C(O)CN1CCN(CC(=O)O)CCN(CC(=O)*)CCN(CC(=O)O)CC1
Key:
[1] = biological target: ITGαvβ3 (Homo sapiens, UniProt P05106+P06756); assay: Surface plasmon resonance assay (SPR), ITGαvβ3; type: binding; conditions: peptide immobilized, integrin as analyte, 1:1 Langmuir fit
Description: Assessment of the binding affinity was performed on a BiaCore X100 (GE Healthcare). To avoid denaturation of the heterodimer during amide activation ITGαvβ6 and ITGαvβ3, respectively, were used as analytes and SFITGv6 was immobilized at its N-terminus on a C1 sensor Chip (BR-1005-35, GE Healthcare) using a manual amine coupling protocol. Briefly, after activation of the sensor chip surface with a solution of EDC 0.4 M/NHS 0.1 M for 5 min a 100 μM peptide dissolved in HBS-EP running buffer (0.1 M HEPES, 30 mM EDTA, 1.5 M NaCl, 0.5% surfactant P20, pH 7.2) was immobilized with a contact time of 30 sec until a loading level of 18 response units (RU) was obtained. […] The SPR-sensogram data were evaluated with the BiaCore evaluation software. The dissociation constant (KD) was determined by a 1:1 Langmuir model fit of the SPR-sensograms.
Assessment of the binding affinity was performed on a BiaCore X100 (GE Healthcare). To avoid denaturation of the heterodimer during amide activation ITGαvβ6 and ITGαvβ3, respectively, were used as analytes and SFITGv6 was immobilized at its N-terminus on a C1 sensor Chip (BR-1005-35, GE Healthcare) using a manual amine coupling protocol. […] The SPR sensogram data were evaluated with the BiaCore evaluation software. The dissociation constant (KD) was determined by a 1:1 Langmuir model fit of the SPR sensograms.

Amino acid sequences for entries named in this document (tags omitted). Residues count along the entry.
UniProt P05106, 27-718 limits assumed: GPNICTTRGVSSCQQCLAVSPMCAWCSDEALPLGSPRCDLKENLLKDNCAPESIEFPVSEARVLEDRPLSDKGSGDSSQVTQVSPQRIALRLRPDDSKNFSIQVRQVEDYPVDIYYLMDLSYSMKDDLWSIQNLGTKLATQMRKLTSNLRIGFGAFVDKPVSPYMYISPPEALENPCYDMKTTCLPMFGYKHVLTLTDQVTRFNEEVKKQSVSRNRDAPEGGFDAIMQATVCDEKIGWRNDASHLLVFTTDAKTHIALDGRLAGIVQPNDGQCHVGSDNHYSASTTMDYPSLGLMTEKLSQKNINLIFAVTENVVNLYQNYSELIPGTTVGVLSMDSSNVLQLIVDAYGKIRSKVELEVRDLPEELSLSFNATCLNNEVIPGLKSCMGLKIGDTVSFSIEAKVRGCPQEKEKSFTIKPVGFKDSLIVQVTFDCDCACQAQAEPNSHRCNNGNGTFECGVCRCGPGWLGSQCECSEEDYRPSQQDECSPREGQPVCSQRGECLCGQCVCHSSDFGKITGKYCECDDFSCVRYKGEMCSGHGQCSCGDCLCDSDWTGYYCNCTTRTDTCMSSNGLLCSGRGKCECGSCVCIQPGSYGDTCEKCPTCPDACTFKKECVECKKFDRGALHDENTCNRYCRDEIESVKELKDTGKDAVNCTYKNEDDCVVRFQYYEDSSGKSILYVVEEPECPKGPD
UniProt P06756, 31-992 limits assumed: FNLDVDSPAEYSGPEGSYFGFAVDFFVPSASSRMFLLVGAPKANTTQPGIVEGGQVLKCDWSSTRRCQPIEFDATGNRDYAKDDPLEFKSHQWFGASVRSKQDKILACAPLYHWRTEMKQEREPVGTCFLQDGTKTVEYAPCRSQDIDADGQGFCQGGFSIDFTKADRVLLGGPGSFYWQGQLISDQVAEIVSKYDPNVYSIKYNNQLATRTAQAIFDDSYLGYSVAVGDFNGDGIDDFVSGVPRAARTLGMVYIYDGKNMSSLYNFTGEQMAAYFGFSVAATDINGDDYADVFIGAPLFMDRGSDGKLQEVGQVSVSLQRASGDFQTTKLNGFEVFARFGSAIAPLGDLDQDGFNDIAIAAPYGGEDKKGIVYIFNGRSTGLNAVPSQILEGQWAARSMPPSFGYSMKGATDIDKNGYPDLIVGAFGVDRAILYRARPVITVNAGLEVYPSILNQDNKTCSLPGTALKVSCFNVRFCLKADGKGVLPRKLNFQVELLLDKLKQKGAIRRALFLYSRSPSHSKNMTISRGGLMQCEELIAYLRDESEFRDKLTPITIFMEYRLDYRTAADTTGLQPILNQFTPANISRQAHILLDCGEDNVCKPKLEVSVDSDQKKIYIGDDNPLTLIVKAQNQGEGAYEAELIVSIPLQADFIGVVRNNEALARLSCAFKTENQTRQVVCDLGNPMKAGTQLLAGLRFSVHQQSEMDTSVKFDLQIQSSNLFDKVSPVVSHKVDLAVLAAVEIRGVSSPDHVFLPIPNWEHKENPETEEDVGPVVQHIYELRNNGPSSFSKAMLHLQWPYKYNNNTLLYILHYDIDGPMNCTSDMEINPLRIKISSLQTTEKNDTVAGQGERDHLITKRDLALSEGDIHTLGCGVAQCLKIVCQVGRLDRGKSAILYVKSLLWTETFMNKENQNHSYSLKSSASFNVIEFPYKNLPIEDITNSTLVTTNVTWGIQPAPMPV

[2] = tested on: HNO97 xenografts; assay: Small-animal PET imaging, HNO97 xenografts; conditions: ^68Ga-labeled
Description: All experiments were conducted in compliance with the German animal protection laws. Eight week old Balb c/c nude mice (Charles River Laboratories) were inoculated subcutaneously at the right shoulder with 5×10^6 HNO97 cells in BD MatriGel™ (BD Bioscience). Xenografts were grown to a tumor diameter of 10-15 mm. For small animal-PET imaging mice were anesthetized using isoflurane inhalation and injected via tail-vein with 50 MBq (2 nmol) of the ^68Ga-labeled DOTA-SFITGv6 peptide (see above) solution in 100 μL PBS. Images were recorded on an Inveon small-animal PET scanner (Siemens) using a 60 min emission scan in list mode and a 10 min transmission scan. Images were taken in 3-dimensional (3D) mode and reconstructed iteratively with a fully 3D algorithm from a 256×256 matrix for viewing transaxial, coronal, and sagittal slices of 0.9 mm thickness. […] Tissue-associated radioactivity was measured in a gamma counter (Berthold LB951G) and expressed as percentage of the injected dose per gram tissue (% ID/g). […]
3-dimensional (3D) PET images of whole mice were captured by the Siemens Inveon PET scanner as described in Example 1. […] Tissues were weighed and respective radioactivity was measured by a gamma counter (LB951G, Berthold Technologies). Values were expressed as percentage of the injected dose radioactivity (MBq) per gram tissue (% ID/g).

[3] = tested on: HNO399 cells; assay: In vitro binding on HNO399 cells; type: cell-based, human; conditions: Example 2, 10 min to 480 min (FIG. 16)
Description: For the assessment of the peptide binding capacity in vitro, 2.5-4×10^5 cells were seeded into 6-well plates and cultivated for 48 h. ^125I-labeled peptide resuspended in 1 mL serum-free medium was added and incubated for either 10 min or 60 min with or without different concentrations of unlabeled peptide (10^−4-10^−11 M). Afterwards, cell monolayers were washed three times with 1 mL phosphate-buffered saline (pH 7.4) to remove unbound peptide and the cells were harvested with 1.4 mL lysis buffer (0.3 M NaOH). […] For the efflux experiments the cells were incubated with ^177Lu-DOTA-labeled peptides for 60 min. Thereafter, radioactive medium was replaced by non-radioactive medium and cell monolayers were incubated for additional 60, 120, and 240 min and afterwards lysed as described earlier. […] Unspecifically bound peptide was removed from the surface by incubation with 1 M glycine-HCl solution (pH 2.2) for 10 min. The monolayer cell was rinsed with PBS and cells were lysed as described before. Radioactivity was determined in a y-counter and calculated as percentage of the applied dose per 1×10^6 cells. Experiments were performed three times, and three repetitions per independent experiment were acquired.

[4] = tested on: carcinoma cell lines; assay: In vitro binding of radiolabeled peptides to several carcinoma cell lines; type: cell-based, human; conditions: within 120 min after termination of the uptake; HNO97, HNO399, HNO223
Description: For binding studies, 2.5×10^5 to 4×10^5 cells were seeded in 6-well plates and cultivated for 48 hours. Cells were incubated for 60 min with 1 mL serum-free medium containing the ^125I-labeled peptide (see above). For competition experiments, cells were simultaneously exposed to unlabeled (10^-4 M to 10^-10 M) and ^125I-labeled peptides. After three washing steps with PBS (pH 7.4) the cells were lysed with 0.5 mL of 0.3 M NaOH. Experiments concerning the internalization, kinetics and efflux were additionally performed with ^177Lu-DOTA-SFITGv6. […] To continue with the efflux experiment radioactive medium was replaced by non-radioactive medium and cells were incubated again for 60 to 240 min before measuring radioactivity of the cell lysates and the medium. […] Radioactivity was determined in a gamma counter and calculated as percentage of the applied dose per 1×10^6 cells. […]
For the assessment of the peptide binding capacity in vitro, 2.5-4×10^5 cells were seeded into 6-well plates and cultivated for 48 h. ^125I-labeled peptide resuspended in 1 mL serum-free medium was added and incubated for either 10 min or 60 min with or without different concentrations of unlabeled peptide (10^−4-10^−11 M). […] The internalization was assessed after exposure of the cells to ^177Lu-DOTA-labeled peptides for 10, 30, 60, 120, and 240 min at 37° C. […]

CC(C)C[C@@H]1NC(=O)[C@H](CC(=O)O)NC(=O)CNC(=O)[C@H](CCCNC(=N)N)NC(=O)CNC(=O)[C@H]([C@@H](C)O)NC(=O)[C@@H](NC(=O)[C@H](CCCNC(=N)N)NC(=O)CN)CSSC[C@@H](C(=O)N[C@@H](Cc2ccc(O)cc2)C(=O)N2CCC[C@H]2C(=O)N[C@@H](CC(=O)O)C(=O)O)NC(=O)[C@H](CC(C)C)NC(=O)[C@H](CCCNC(=N)N)NC(=O)CNC1=O [SFLAP3, H2N-G-R-C1-T-G-R-G-D-L-G-R-L-C2-Y-P-D-COOH] (H-GRCTGRGDLGRLCYPD-OH; disulfide 3-13)
Kd [1]: 185 nM

CC(C)C[C@@H]1NC(=O)[C@H](CC(=O)O)NC(=O)CNC(=O)[C@H](CCCNC(=N)N)NC(=O)CNC(=O)[C@H]([C@@H](C)O)NC(=O)[C@@H](NC(=O)[C@H](CCCNC(=N)N)NC(=O)CNC(=O)CN2CCN(CC(=O)O)CCN(CC(=O)O)CCN(CC(=O)O)CC2)CSSC[C@@H](C(=O)N[C@@H](Cc2ccc(O)cc2)C(=O)N2CCC[C@H]2C(=O)N[C@@H](CC(=O)O)C(N)=O)NC(=O)[C@H](CC(C)C)NC(=O)[C@H](CCCNC(=N)N)NC(=O)CNC1=O [^68Ga-DOTA-SFLAP3, metal not drawn] ({DOTA}-GRCTGRGDLGRLCYPD-NH2; disulfide 3-13; N-terminus and C-terminus assumed)
time for which tumor accumulation was maintained [2]: at least 140 min

CSCC[C@@H]1NC(=O)[C@H](CC(C)C)NC(=O)[C@H](CC(=O)O)NC(=O)CNC(=O)[C@H](CCCNC(=N)N)NC(=O)[C@H](Cc2ccccc2)NC(=O)[C@H]([C@@H](C)O)NC(=O)[C@@H](NC(=O)[C@H](CCCNC(=N)N)NC(=O)CNC(=O)CN2CCN(CC(=O)O)CCN(CC(=O)O)CCN(CC(=O)O)CC2)CSSC[C@@H](C(=O)N[C@@H](Cc2ccc(O)cc2)C(=O)N2CCC[C@H]2C(=O)N[C@@H](CC(=O)O)C(=O)O)NC(=O)[C@H](CC(C)C)NC(=O)[C@H](CCC(N)=O)NC1=O [^177Lu-DOTA-SFITGv6, metal not drawn] ({DOTA}-GRCTFRGDLMQLCYPD-OH; disulfide 3-13)
maximum binding capacity of ^177Lu-DOTA-labeled peptide (kinetics) [3]: 5.85%

CC(C)C[C@@H]1NC(=O)[C@H](CC(=O)O)NC(=O)CNC(=O)[C@H](CCCNC(=N)N)NC(=O)CNC(=O)[C@H]([C@@H](C)O)NC(=O)[C@@H](NC(=O)[C@H](CCCNC(=N)N)NC(=O)CNC(=O)CN2CCN(CC(=O)O)CCN(CC(=O)O)CCN(CC(=O)O)CC2)CSSC[C@@H](C(=O)N[C@@H](Cc2ccc(O)cc2)C(=O)N2CCC[C@H]2C(=O)N[C@@H](CC(=O)O)C(N)=O)NC(=O)[C@H](CC(C)C)NC(=O)[C@H](CCCNC(=N)N)NC(=O)CNC1=O [^177Lu-DOTA-SFLAP3, metal not drawn] ({DOTA}-GRCTGRGDLGRLCYPD-NH2; disulfide 3-13; N-terminus and C-terminus assumed)
efflux of originally accumulated peptide [4]: more than 50%

Reference: patent US20200131227A1, “POLYPEPTIDE WITH TUMOUR BINDING ACTIVITY” (RUPRECHT-KARLS-UNIVERSITÄT HEIDELBERG, priority 2017, published 2020)
